# Source: PubChem BioAssay AID330 (DTP/NCI, 2004)
# The list shows only some results of the screen, not a fair sample: it is rich in T/C values a quarter to a half above the control, in often repeated tests (any T/C) and in doses without a T/C. Other doses and runs of a compound stand elsewhere. T/C: endpoint of the treated group in % of that of the vehicle group. Some doses have a count of surviving animals in place of a T/C: the source holds a T/C of zero for them, seemingly a mark for toxic or unscored doses. Some doses without a T/C left all or most animals alive at the check, yet need not have been tolerated: survival well below the control is almost never listed, so the zero probably covers shortened survival too. Counts of survivors are from the toxicity check (mostly the fifth day) where no day follows; animals may have died later. Schedule codes are those of the source, read here as Q, the interval in days (D) or hours (H), X, the number of doses. For survival time, this PubChem deposit counts one and a half times the control or more as active, and values a quarter to a half above the control carry no call in these data; other NCI protocols may use other cut-offs. Some T/C values are followed by the survivors on the day toxicity was checked, most often the fifth; where none is given, no animal had died by that day.
# Test system: P388 leukemia ip, CD2F1 mice, survival T/C
# Experiment: NCI In Vivo Anticancer Drug Screen. Data for tumor model P388 Leukemia (intraperitoneal) in CD2F1 (CDF1) mice
# Details: T/C endpoint: median survival time, higher T/C = longer survival
# [1] = dose: 100.0 mg/kg/injection, schedule: Q01DX005 (ip), vehicle: Klucel (hydroxypropylcellulose) (HPC)
# [2] = dose: 200.0 mg/kg/injection, schedule: Q01DX005 (ip), vehicle: saline with Tween-80
# [3] = dose: 200.0 mg/kg/injection, schedule: Q01DX009 (ip), vehicle: saline
# [4] = dose: 240.0 mg/kg/injection, schedule: Q01DX005 (ip), vehicle: saline with Tween-80
# [5] = dose: 100.0 mg/kg/injection, schedule: Q01DX009 (ip), vehicle: saline
# [6] = dose: 240.0 mg/kg/injection, schedule: Q01DX005 (ip), vehicle: Klucel (hydroxypropylcellulose) (HPC)
structure (smiles),measurement,setting,value
CCOC(=O)C(CC(C)C)NC(=O)C(Cc1ccc(N(CCCl)CCCl)cc1)NC(C)=O (stereo not drawn),T/C,"dose: 2.0 mg/kg/injection, schedule: Q01DX009 (ip), vehicle: saline",134 % of control
same,T/C,"dose: 4.0 mg/kg/injection, schedule: Q01DX009 (ip), vehicle: saline",140 % of control
same,T/C,"dose: 8.0 mg/kg/injection, schedule: Q01DX009 (ip), vehicle: olive oil, sesame oil, peanut oil",130 % of control
same,T/C,"dose: 8.0 mg/kg/injection, schedule: Q01DX009 (ip), vehicle: saline",145 % of control
same,T/C,"dose: 8.4 mg/kg/injection, schedule: Q04DX003 (ip), vehicle: saline with Tween-80",127 % of control
same,T/C,"dose: 12.5 mg/kg/injection, schedule: Q01DX005 (ip), vehicle: Klucel (hydroxypropylcellulose) (HPC)",144 % of control
same,T/C,"dose: 12.6 mg/kg/injection, schedule: Q04DX003 (ip), vehicle: saline with Tween-80",132 % of control
same,T/C,"dose: 16.0 mg/kg/injection, schedule: Q01DX009 (ip), vehicle: Klucel (hydroxypropylcellulose) (HPC)",130 % of control
same,T/C,"dose: 16.0 mg/kg/injection, schedule: Q01DX009 (ip), vehicle: olive oil, sesame oil, peanut oil",145 % of control
same,T/C,"dose: 25.0 mg/kg/injection, schedule: Q01DX005 (iv), vehicle: Klucel (hydroxypropylcellulose) (HPC)",142 % of control
same,T/C,"dose: 32.0 mg/kg/injection, schedule: Q01DX009 (ip), vehicle: other",125 % of control [5 of 6 alive]
same,T/C,"dose: 32.0 mg/kg/injection, schedule: Q01DX009 (ip), vehicle: saline with Tween-80",127 % of control
same,T/C,"dose: 64.0 mg/kg/injection, schedule: Q01DX009 (ip), vehicle: olive oil, sesame oil, peanut oil",143 % of control
same,T/C,"dose: 64.0 mg/kg/injection, schedule: Q01DX009 (ip), vehicle: other",131 % of control
same,T/C,"dose: 64.0 mg/kg/injection, schedule: Q01DX009 (ip), vehicle: saline with Tween-80, evaluated on day 30",130 % of control
same,T/C,"dose: 64.0 mg/kg/injection, schedule: Q01DX009 (ip), vehicle: saline with Tween-80, evaluated on day 35",127 % of control
same,T/C,"dose: 64.0 mg/kg/injection, schedule: Q01DX009 (ip), vehicle: saline",127 % of control
same,survivor count,[1],6 of 6
same,survivor count,"dose: 100.0 mg/kg/injection, schedule: Q01DX005 (iv), vehicle: Klucel (hydroxypropylcellulose) (HPC)",4 of 6
same,survivor count,"dose: 128.0 mg/kg/injection, schedule: Q01DX009 (ip), vehicle: Klucel (hydroxypropylcellulose) (HPC)",6 of 6
same,survivor count,"dose: 128.0 mg/kg/injection, schedule: Q01DX009 (ip), vehicle: olive oil, sesame oil, peanut oil",5 of 6
same,T/C,"dose: 128.0 mg/kg/injection, schedule: Q01DX009 (ip), vehicle: other",149 % of control
same,T/C,"dose: 128.0 mg/kg/injection, schedule: Q01DX009 (ip), vehicle: saline with Tween-80",135 % of control
same,survivor count,"dose: 128.0 mg/kg/injection, schedule: Q01DX009 (ip), vehicle: saline",10 of 10
same,survivor count,"dose: 128.0 mg/kg/injection, schedule: Q04DX003 (ip), vehicle: saline with Tween-80",10 of 10
same,T/C,"dose: 144.0 mg/kg/injection, schedule: Q04DX003 (ip), vehicle: saline with Tween-80",145 % of control
same,survivor count,"dose: 256.0 mg/kg/injection, schedule: Q01DX009 (ip), vehicle: Klucel (hydroxypropylcellulose) (HPC)",4 of 6
same,survivor count,"dose: 256.0 mg/kg/injection, schedule: Q01DX009 (ip), vehicle: olive oil, sesame oil, peanut oil",0 of 6
same,survivor count,"dose: 256.0 mg/kg/injection, schedule: Q01DX009 (ip), vehicle: saline",0 of 10
same,survivor count,"dose: 256.0 mg/kg/injection, schedule: Q04DX003 (ip), vehicle: saline with Tween-80",6 of 10
COCCNC(=S)SCCN(C(C)C)C(C)C,survivor count,[2],3 of 6
CCN(CC)CCCC(CCl)Nc1ccnc2cc(Cl)ccc12 (stereo not drawn),survivor count,[3],0 of 6
CCOC(=O)c1c(-c2ccc3c(c2)OCO3)[nH][nH]c1=O,survivor count,"dose: 400.0 mg/kg/injection, schedule: Q04DX002 (ip), vehicle: saline",3 of 6
C[Si](CCCNCCN)(O[Si](C)(CCCNCCN)c1ccccc1)c1ccccc1 (stereo not drawn),survivor count,"dose: 60.0 mg/kg/injection, schedule: Q01DX005 (ip), vehicle: saline with Tween-80",4 of 6
same,survivor count,"dose: 120.0 mg/kg/injection, schedule: Q01DX005 (ip), vehicle: saline with Tween-80",6 of 6
same,survivor count,[4],0 of 6
COc1ccc(CSC(=S)Nc2cccc(S(F)(F)(F)(F)F)c2)cc1,survivor count,"dose: 100.0 mg/kg/injection, schedule: Q01DX009 (ip), vehicle: saline with Tween-80",6 of 6
same,T/C,[5],125 % of control
CCCCCCCCCCCCCCCCN1CCSCC1,survivor count,[3],1 of 6
COC(=O)C1=NC(=N)N=C(C(=O)OC)C12C(=O)Cc1ccccc12 (stereo not drawn),survivor count,[4],0 of 6
CC(C)(C)[P+](C)(C)c1ccccc1,survivor count,"dose: 50.0 mg/kg/injection, schedule: Q04DX003 (ip), vehicle: Klucel (hydroxypropylcellulose) (HPC)",3 of 6
same,survivor count,"dose: 100.0 mg/kg/injection, schedule: Q04DX003 (ip), vehicle: Klucel (hydroxypropylcellulose) (HPC)",0 of 6
same,survivor count,"dose: 200.0 mg/kg/injection, schedule: Q04DX003 (ip), vehicle: Klucel (hydroxypropylcellulose) (HPC)",0 of 6
same,survivor count,"dose: 400.0 mg/kg/injection, schedule: Q04DX003 (ip), vehicle: Klucel (hydroxypropylcellulose) (HPC)",0 of 6
O=C1OC(c2ccccc2)(c2ccccc2)CC12CC(c1ccccc1)(c1ccccc1)OC2=O,survivor count,[2],6 of 6
C[CH2][Sn]([F])([F])[CH2]C,survivor count,"dose: 100.0 mg/kg/injection, schedule: Q04DX003 (ip), vehicle: saline",0 of 6
same,survivor count,"dose: 200.0 mg/kg/injection, schedule: Q04DX003 (ip), vehicle: saline",0 of 6
same,survivor count,"dose: 400.0 mg/kg/injection, schedule: Q04DX003 (ip), vehicle: saline",0 of 6
CCCCNCCC(O)c1cc2ccc(C(F)(F)F)cc2c2cc(C(F)(F)F)ccc12 (stereo not drawn),survivor count,"dose: 200.0 mg/kg/injection, schedule: Q01DX009 (ip), vehicle: saline with Tween-80",1 of 6
COc1ccc(C2C3=C(CCC(CN(C)C)C3=O)OC3=C2C(=O)C(CN(C)C)CC3)cc1 (stereo not drawn),survivor count,"dose: 240.0 mg/kg/injection, schedule: Q01DX005 (ip), vehicle: saline",0 of 6
C/C(=N\OCC(O)CNCCNC(=O)C(C)C)c1ccc(N(C)C)cc1 (stereo not drawn),survivor count,[6],0 of 6
COC(=O)c1nc(N)nc(C(=O)OC)c1C(=O)c1ccccc1,survivor count,[6],0 of 6
CCOC(=O)NN(C(=O)OCC)/C(C(=O)OCC)=C(/C)N,survivor count,[5],6 of 6
same,survivor count,[3],5 of 6
C=Cn1ccnc1,T/C,"dose: 25.0 mg/kg/injection, schedule: Q01DX009 (ip), vehicle: saline",126 % of control
same,survivor count,[3],5 of 6
CN(C)CCn1c2nc(=O)[nH]c(=O)c-2nc2ccccc21,survivor count,[1],3 of 6
same,survivor count,"dose: 200.0 mg/kg/injection, schedule: Q01DX005 (ip), vehicle: Klucel (hydroxypropylcellulose) (HPC)",0 of 6
CC1CN1P(=O)(OCCC#N)N1CC1C (stereo not drawn),T/C,"dose: 50.0 mg/kg/injection, schedule: Q01DX009 (ip), vehicle: other",140 % of control
same,T/C,"dose: 100.0 mg/kg/injection, schedule: Q04DX003 (ip), vehicle: other",136 % of control
same,T/C,"dose: 200.0 mg/kg/injection, schedule: Q01DX009 (ip), vehicle: other",125 % of control
CCC#CC(=O)O,survivor count,[5],6 of 6
same,survivor count,[3],0 of 6
Cc1[nH]c2ccc(N(C)C)cc2c(=O)c1Cc1c(C)[nH]c2ccc(N(C)C)cc2c1=O,survivor count,[4],6 of 6
O=NN(CCF)C(=O)NC1CCS(=O)(=O)CC1,survivor count,"dose: 20.0 mg/kg/injection, schedule: Q04DX003 (ip), vehicle: saline with Tween-80",5 of 6
CN(C)NP(=S)(NN(C)C)Oc1ccccc1,survivor count,[2],2 of 5
COC(=O)c1ncn(Cc2ccccc2)c1N,survivor count,"dose: 200.0 mg/kg/injection, schedule: Q04DX002 (ip), vehicle: saline with Tween-80",3 of 6
same,survivor count,"dose: 400.0 mg/kg/injection, schedule: Q04DX002 (ip), vehicle: saline with Tween-80",0 of 6
